Measurements reported in PubChem BioAssay AID1259405 (NCATS, 2018).
Purpose: 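Knock-downs that lift recombinant protein yield in hamster ovary cells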 (primary screen). System: Chinese hamster CHO-K1 ovary cells with stable secreted eGFP expression. Reagents: single siRNA against mouse genes, 0.8 pmol siRNA per well (2 µl of 400 nM stock). Timing: 3 days. Read-out: 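Per-well intracellular GFP measured by laser scanning cytometry, plus viability from ATP luminescence, each relative to plate median of non-targeting control wells, in %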. Direction: GFP, % of control: higher = more GFP per well, higher productivity; viability (ATP), % of control: higher = more viable cells (more ATP). Rule for the call: 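Called active when intracellular GFP, relative to negative control, is at or above 120%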.
Shown is a random part of about 50,000 deposited reagents. Over the whole deposit, about 4,000 (8%) were called active. 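Mouse siRNA library applied to hamster cells; one well for each siRNA.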

Gene | PubChem SID | GFP, % of control | viability (ATP), % of control | outcome
Reg3d (regenerating islet-derived 3 delta) | SID363541575 | 25.5 | 28.6 | inactive
Reg3d (regenerating islet-derived 3 delta) | SID363556202 | 170 | 72.5 | active
Reg3d (regenerating islet-derived 3 delta) | SID363566491 | 43 | 62.8 | inactive
Aasdhppt | SID363570375 | 95.6 | 64.3 | inactive
Aasdhppt | SID363579175 | 81.9 | 147 | inactive
Aasdhppt | SID363583047 | 124 | 134 | active
Muc5b (mucin 5, subtype B, tracheobronchial) | SID363582437 | 78.4 | 113 | inactive
Muc5b (mucin 5, subtype B, tracheobronchial) | SID363584197 | 67.4 | 57.5 | inactive
Thsd7b (thrombospondin, type I, domain containing 7B) | SID363553782 | 61.9 | 36.2 | inactive
Thsd7b (thrombospondin, type I, domain containing 7B) | SID363561739 | 93.9 | 76.9 | inactive
Thsd7b (thrombospondin, type I, domain containing 7B) | SID363565477 | 92.7 | 46.2 | inactive
Rpa3 (replication protein A3) | SID363555138 | 66.2 | 65.1 | inactive
Rpa3 (replication protein A3) | SID363568585 | 42.2 | 51.1 | inactive
Rpa3 (replication protein A3) | SID363586644 | 74.9 | 86.6 | inactive
Nrarp (Notch-regulated ankyrin repeat protein) | SID363562340 | 87.2 | 49.8 | inactive
Nrarp (Notch-regulated ankyrin repeat protein) | SID363567478 | 100 | 96.2 | inactive
Nrarp (Notch-regulated ankyrin repeat protein) | SID363584835 | 83.1 | 55.6 | inactive
Cd209b (CD209b antigen) | SID363550221 | 82.1 | 66.7 | inactive
Cd209b (CD209b antigen) | SID363564730 | 95.4 | 94.3 | inactive
Cd209b (CD209b antigen) | SID363588275 | 92.4 | 105 | inactive
Zdhhc14 (zinc finger, DHHC domain containing 14) | SID363556594 | 33.8 | 24.9 | inactive
Zdhhc14 (zinc finger, DHHC domain containing 14) | SID363563498 | 55.6 | 39.1 | inactive
Zdhhc14 (zinc finger, DHHC domain containing 14) | SID363587044 | 49 | 67.5 | inactive
Mcoln3 (mucolipin 3) | SID363574647 | 79.8 | 90.9 | inactive
Mcoln3 (mucolipin 3) | SID363575703 | 89.2 | 83.8 | inactive
Mcoln3 (mucolipin 3) | SID363580279 | 75.7 | 78.9 | inactive
Prkar1b (protein kinase, cAMP dependent regulatory, type I beta) | SID363573349 | 98.7 | 94.6 | inactive
Prkar1b (protein kinase, cAMP dependent regulatory, type I beta) | SID363588588 | 86.4 | 85.1 | inactive
Gpi1 (glucose-6-phosphate isomerase 1) | SID363568922 | 156 | 96.7 | active
Gpi1 (glucose-6-phosphate isomerase 1) | SID363576314 | 113 | 114 | inactive
Gpi1 (glucose-6-phosphate isomerase 1) | SID363579130 | 66.5 | 44.5 | inactive
Flt3 (FMS-like tyrosine kinase 3) | SID363570753 | 97.3 | 63.8 | inactive
Nppb (natriuretic peptide type B) | SID363541366 | 62.7 | 61.5 | inactive
Nppb (natriuretic peptide type B) | SID363555993 | 110 | 84.2 | inactive
Nppb (natriuretic peptide type B) | SID363566282 | 82.3 | 55.3 | inactive

Quoted from above (5 entries):
Gene | PubChem SID | GFP, % of control | viability (ATP), % of control | outcome
Nrarp (Notch-regulated ankyrin repeat protein) | SID363562340 | 87.2 | 49.8 | inactive
Nrarp (Notch-regulated ankyrin repeat protein) | SID363567478 | 100 | 96.2 | inactive
Nrarp (Notch-regulated ankyrin repeat protein) | SID363584835 | 83.1 | 55.6 | inactive
Cd209b (CD209b antigen) | SID363550221 | 82.1 | 66.7 | inactive
Cd209b (CD209b antigen) | SID363564730 | 95.4 | 94.3 | inactive
